The values below come from PubChem BioAssay AID1487 (National Center for Advancing Translational Sciences (NCATS), 2009).

This experiment is described as follows: qHTS Assay for Modulators of Lamin A Splicing. The conditions noted are these: HeLa LMNA splicing GFP/RFP minigene ratio, 48 h. Summed up: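 S3 HeLa cells stably expressing lamin A-EGFP splicing minigene plus DsRed2, 600 cells/well, 48 h compound exposure at 37C. Laser-scanning cytometry; analysed as GFP (500-530 nm)/RFP (575-640 nm) total intensity ratio; 0.5% DMSO vehicle.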
(Quantitative high-throughput screening tests each substance at several concentrations.)

[1] abbreviates: measured here: GFP splicing reporter channel.
Where [2] appears, read: measured here: RFP viability control channel.

Each structure is given as a SMILES string. Some of the results follow. Shown are side measurements of this screen, not its main read-out; they come without a call. Most of these compounds were active or inconclusive in the main read-out, so they are no random draw. Words in brackets tell the shape of the fitted curve; partial curves, single points and poor fits give uncertain potencies.

A word on the AC50: it is the concentration giving half of the maximal activity seen. For the compound `Cc1cccc(NS(=O)(=O)c2ccc(C3CCCCC3)cc2)c1`, the AC50 under setting [1] was 1.58 µM [rising, partial curve] and the concentration at half-maximal activity (AC50) under setting [2] is 3.98 µM [rising, partial curve].
In the case of `COc1ccc(Nc2ncnc3c2cnn3-c2ccc(C)cc2)cc1Cl`, the AC50 was 0.0158 µM [rising, full curve, poor fit] under setting [1] and 14.1 µM [rising, partial curve, poor fit] under setting [2].
In the case of `Cc1ccccc1CSc1nc2ccsc2c(=O)n1CCC(C)C`, the AC50 under setting [2] was 20 µM [rising, single point].
As for `O=C(O)c1ccc(NS(=O)(=O)c2ccc3c(c2)OCCCO3)cc1`, under setting [1], the concentration at half-maximal activity (AC50) was 0.0398 µM [rising, full curve, poor fit].
With `COc1cccc(CNCc2cccnc2)c1OCc1ccccc1`, the AC50 under setting [2] was 35.5 µM [falling, single point].
Still for that read-out and setting: under `Cc1ccc(CNC(=O)c2ccc(CSCc3cccc(C)c3)o2)cc1` stands 11.2 µM [rising, single point].
Turning to `CCC(C(=O)NC1CCCC1)N(Cc1ccco1)C(=O)Cn1nnc(-c2ccc(C)cc2)n1` (centres undefined), the AC50 runs as follows: under setting [1], 14.1 µM [rising, single point]; under setting [2], 22.4 µM [rising, single point].
`Cc1cccc(N(CC(=O)Nc2ccccc2F)S(C)(=O)=O)c1`: the AC50 under setting [2] is 1.41 µM [falling, full curve, poor fit].
Turning to `O=C(/C=C/c1ccccc1)NCC(=O)N/N=C\c1cccnc1`, the concentration at half-maximal activity (AC50) under setting [2] was 0.00891 µM [falling, full curve, poor fit].
As to `O=C(Nc1ccc(-n2nncc2-c2ccco2)cc1)c1cc2ccccc2oc1=O`, the AC50 by setting is: under setting [1], 20 µM [falling, single point]; under setting [2], 35.5 µM [falling, single point].
As to `Cc1cc(C)cc(-n2c(SCC(=O)N3CCOCC3)nc3c([nH]c4ccccc43)c2=O)c1`, under setting [1], the AC50 was 0.02 µM [rising, full curve, poor fit].
Turning to `Cc1ccc(NS(=O)(=O)c2ccc3[nH]c4c(c3c2)CCCC4)cc1N(C)C`, the AC50 runs as follows: under setting [1], 35.5 µM [falling, single point]; under setting [2], 35.5 µM [falling, single point].
For the compound `CC(C)CC(COCc1cccc(C(F)(F)F)c1)N1CCN(C(=O)c2cccc(C(F)(F)F)c2)CCC1=O` (centres undefined), the AC50 under setting [1] was 11.2 µM [rising, partial curve] and the AC50 under setting [2] was 14.1 µM [rising, partial curve].
As for `COc1ccc(OCCC(=O)OCC(=O)NCc2ccc(F)cc2)cc1`, the AC50 under setting [1] is 0.0141 µM [falling, full curve].
Still for that read-out and setting: under `Cc1nc2ccn(Cc3cccs3)c(=O)c2cc1C(=O)N1CCN(c2ccccc2F)CC1` stands 0.00794 µM [falling, full curve, poor fit].
Turning to `O=C(NC(C(=O)N/N=C/c1c2ccccc2cc2ccccc12)c1n[nH]c(=O)c2ccccc12)c1ccccc1` (centres undefined), the AC50 under setting [2] was 20 µM [rising, single point].
Take `CC(C)CC(=O)CC1(O)C(=O)Nc2ccccc21` (centres undefined): the AC50 under setting [1] is 0.00355 µM [falling, full curve] and the concentration at half-maximal activity (AC50) under setting [2] was 0.00501 µM [falling, full curve, poor fit].
As to `CCOC(=O)CC(=O)CSc1nc2ccsc2c(=O)n1Cc1ccccc1`, the concentration at half-maximal activity (AC50) under setting [1] was 20 µM [rising, partial curve, poor fit].
In the case of `CCOC(=O)c1sc(C)c2c1NC(C)(c1ccccc1)NC2=O` (centres undefined), the AC50 under setting [2] is 8.91 µM [rising, partial curve, poor fit].
On to `CCSc1nnc(NC(=O)C(NC(=O)c2ccc(Cl)cc2)C(C)C)s1` (centres undefined), for which the AC50 is 10 µM [rising, partial curve, poor fit] under setting [1] and 15.8 µM [rising, single point] under setting [2].
In the case of `COc1ccc(C(CCNCc2ccccc2F)c2ccc(F)cc2)cc1` (centres undefined), the AC50 under setting [1] is 35.5 µM [falling, single point].
As for `N=c1c2c(-c3ccccc3)c(-c3ccccc3)n(Cc3ccccc3)c2ncn1CCCO`, the half-maximal activity concentration (AC50) reads like this: under setting [1], 12.6 µM [falling, partial curve]; under setting [2], 35.5 µM [falling, single point].
In the case of `COc1ccc(Oc2ncnc3sccc23)cc1`, under setting [2], the AC50 is 3.98 µM [falling, partial curve].
Turning to `Cn1c(=O)[nH]c(=O)c2c1nc(CN1CCN(c3cccc(Cl)c3)CC1)n2Cc1ccccc1Cl`, the AC50 runs as follows: under setting [1], 35.5 µM [falling, single point]; under setting [2], 35.5 µM [falling, single point].
Take `O=C(CCC1CC(=O)Nc2ccccc21)NCc1cccnc1` (centres undefined): the half-maximal activity concentration (AC50) under setting [2] is 0.794 µM [falling, single point].
On to `Cc1cc(C)nc(-n2nc(C)c3c2NC(=O)CC3c2cccc(O)c2)n1` (centres undefined), for which, under setting [2], the AC50 is 8.91 µM [rising, partial curve].
Turning to `CCOC(=O)C(C)On1c(-c2cccc(Cl)c2)nc2ccc([N+](=O)[O-])cc21` (centres undefined), the AC50 under setting [1] was 20 µM [rising, single point] and the half-maximal activity concentration (AC50) under setting [2] was 31.6 µM [rising, single point].
On to `COc1ccc(NC(=O)c2cc3c(s2)CCC(C)C3)cc1S(=O)(=O)N1CCOCC1` (centres undefined), for which the AC50 under setting [2] is 3.16 µM [rising, full curve].
Same read-out and setting: under `Nc1nnnn1/N=C/c1cccc(OCc2ccccc2Cl)c1` stands 22.4 µM [rising, single point]; under `Cc1ccc(-c2cc(C(=O)NCc3cccnc3)no2)cc1`, 11.2 µM [rising, partial curve, poor fit].
As for `COc1cc(OC)c(NC(=O)Nc2cccc(OCc3cc(=O)n4ccccc4n3)c2)cc1Cl`, the AC50 under setting [1] was 11.2 µM [falling, partial curve] and the AC50 under setting [2] is 14.1 µM [falling, partial curve].
As for `C=CCn1c(SCc2ccc(C(=O)OC)cc2)nnc1-c1sc(N)nc1C`, the concentration at half-maximal activity (AC50) under setting [1] is 0.0562 µM [rising, full curve, poor fit].
As for `O=C(Nc1ccccc1)c1ccc(S(=O)(=O)NCC2CCCO2)cc1` (centres undefined), the AC50 is 8.91 µM [rising, partial curve, poor fit] under setting [1] and 15.8 µM [rising, partial curve] under setting [2].
`C=CCn1c(=S)[nH]c2scc(-c3cccs3)c2c1=O`: the AC50 under setting [1] is 35.5 µM [rising, partial curve, poor fit].
Same read-out and setting: under `O=C(OCc1cc([N+](=O)[O-])cc2c1OCOC2)c1ccc2ccccc2n1` stands 35.5 µM [falling, partial curve, poor fit].
Regarding `Oc1cccc(-c2nc3c4c(ncn3n2)-c2ccccc2CC42CCCC2)c1`, the AC50 is 20 µM [falling, partial curve] under setting [1] and 20 µM [falling, partial curve] under setting [2].
On to `Cc1cc(Cl)ccc1OC(C)C(=O)NCCCCc1ccccc1` (centres undefined), for which the AC50 under setting [2] is 20 µM [rising, single point].
As for `Cc1ccc(Nc2c(-c3ccccc3)nc3cnccn23)cc1`, the AC50 under setting [1] is 0.0224 µM [falling, full curve] and the AC50 under setting [2] was 0.02 µM [falling, full curve, poor fit].
Turning to `O=C(O)C1CCN(S(=O)(=O)c2ccc(Oc3ccccc3)cc2)CC1`, the AC50 was 12.6 µM [rising, single point] under setting [1] and 22.4 µM [rising, single point] under setting [2].
Turning to `O=C(/C=C/c1ccccc1)NCCOc1ccccc1`, the AC50 under setting [1] was 1.58 µM [rising, full curve, poor fit].
Turning to `CCOc1ccc(C2C(=O)N(C3CCCCC3)CC(=O)N2CC2CCCO2)cc1OC` (centres undefined), the AC50 under setting [2] was 6.31 µM [falling, single point].
For `O=C1c2cccc(OCC(=O)N3CCCc4ccccc43)c2CCN1Cc1ccccc1`, the AC50 under setting [1] was 35.5 µM [falling, single point].
For `CCOC(=O)c1cc(-c2ccccc2)n(CCC(=O)N2CCN(c3ccccc3OC)CC2)c1C`, the AC50 under setting [1] was 22.4 µM [falling, single point].
`COc1ccc(N2CCCn3c2nc2c3c(=O)n(Cc3ccc(C)cc3)c(=O)n2C)c(OC)c1`: the AC50 under setting [2] is 2.82 µM [falling, partial curve, poor fit].
`CCN1CCC[C@H]1CNC(=O)c1cc(S(N)(=O)=O)ccc1OC`: the AC50 is, setting by setting: under setting [1], 0.00631 µM [falling, full curve, poor fit]; under setting [2], 0.00224 µM [falling, full curve, poor fit].
Consider `O=S(=O)(c1cc(Cl)ccc1Cl)n1ccnc1`, for which the AC50 under setting [2] was 0.00794 µM [falling, full curve, poor fit].
Regarding `COc1ccccc1N1CCN(CCCNC(=O)c2cnn(-c3cccc(Cl)c3)c2C2CCN(C(=O)OC(C)(C)C)CC2)CC1`, under setting [1], the AC50 is 35.5 µM [falling, single point].
With `COc1cc(CNCc2c[nH]c3ccccc23)cc(OC)c1`, the AC50 under setting [1] was 0.794 µM [falling, full curve, poor fit].
Consider `O=C(Nc1ccccc1)Nc1cccc(-c2cn3cccnc3n2)c1`, for which the AC50 under setting [2] was 0.0224 µM [rising, full curve, poor fit].
Still for that read-out and setting: under `Cc1cc(C)n(/N=C\c2c(O)ccc3ccccc23)c(=O)c1C(N)=O` stands 35.5 µM [rising, single point]; under `CCOc1cc(/C=N/NC(N)=S)cc(Br)c1OCc1ccccc1C`, 3.16 µM [falling, full curve, poor fit].
Consider `Cc1noc(C)c1-c1nc(N(C)Cc2ccco2)c2ccccc2n1`, for which the AC50 was 35.5 µM [falling, single point] under setting [1] and 35.5 µM [falling, single point] under setting [2].
As to `Nc1nc(SCC(=O)Nc2ccccc2Oc2ccccc2)n[nH]1`, the AC50 under setting [1] was 0.0224 µM [rising, full curve, poor fit].
On the same count and under the same terms, under `Cc1ccc2[nH]c(=O)c(CN(Cc3ccccc3)Cc3nnnn3C3CCCC3)cc2c1` stands 14.1 µM [falling, single point].
For the compound `CCC(C)NS(=O)(=O)c1ccc(NC(=O)C(Sc2ccccc2)c2ccccc2)cc1` (centres undefined), under setting [2], the half-maximal activity concentration (AC50) was 35.5 µM [rising, single point].
As to `CC(C)(C)NC[C@H](O)COc1cccc2c1CCC(=O)N2`, the AC50 under setting [1] was 15.8 µM [rising, partial curve, poor fit].
